# Source: PubChem BioAssay AID504467 (National Center for Advancing Translational Sciences (NCATS), 2011)
# The whole screen tested about 330,000 compounds, of which about 7,700 (2.3%) were called active. The inconclusive results got no clear call from the source; some entries with a clear call stand among them for comparison. Calls come from the whole dose curve; as a rule, active = well fitted inhibition curve with a large enough effect; inconclusive = small, poorly fitted or top-dose-only effect, or effect the other way; inactive = flat fitted curve, though single readings scatter. Potencies of inconclusive entries are doubtful fits and often do not repeat.
# Test: qHTS screen for small molecules that inhibit ELG1-dependent DNA repair in human embryonic kidney (HEK293T) cells expressing luciferase-tagged ELG1; note: nearly all actives have a fitted effect of over 55% in size
# Conditions: HEK293T ELG1-luciferase reporter, luminescence, 16 h, DNA damage induced by 5-fluorouridine; activity change, negative = inhibition: at 46.1 µM (top of the series)
# Procedure, shortened: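 In this reporter screen, reduction of luminescence relative to DMSO vehicle indicated activity. Compounds and 5-fluorouridine were added together to 2,000 cells per well, incubated for 16 hr at 37 °C, then developed with ONE-Glo.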
# % is set by controls: 0 for no effect and ±100 for the full control effect; potency is the fitted concentration of half-maximal effect.
SMILES,Potency,"activity change, negative = inhibition"
CCOC(=O)N1CCC(NC(=O)c2cnn3cccnc23)CC1,inactive,–
NNC(=O)c1[nH]c2ccccc2c1-c1ccccc1,"inconclusive: 20.6 µM [inhibitor, single point]",–
CCn1c(CC(=O)Nc2ccc(C)cc2)nnc1SCC(=O)Nc1nc(C)cs1,"inconclusive: 29.1 µM [activator, single point]",–
CC(C)[C@@H]1CN=C(N)N1C[C@@H]1CCCN1C[C@H](C)N1C[C@@H](Cc2ccccc2)N(CCc2ccc(Cl)c(Cl)c2)C1=N,inactive,–
O=C(c1cc2c(=O)n3ccccc3nc2s1)N1CCN(Cc2ccc3c(c2)OCO3)CC1,"inconclusive: 16.4 µM [inhibitor, partial curve]",–
CCOc1ccc(C(=O)/C=C/c2cn(CN3CCN(C)CC3)c3ccccc23)cc1,"inconclusive: 17.8 µM [activator, partial curve]",–
CN(C)CCNC(=S)Nc1ccc(-c2nc3ccccc3[nH]2)cc1,"inconclusive: 8.2 µM [activator, partial curve]",–
O=C(CN1C(=O)CCS(=O)(=O)c2ccccc21)NCc1ccc2c(c1)OCO2,"inconclusive: 29.1 µM [activator, single point]",–
CC(C)c1ccc(C(=O)NNC(=O)C2CC=CCC2C(=O)O)cc1 (stereo not given),"inconclusive: 20.6 µM [activator, partial curve]",–
CCc1cc(=O)oc2cc(OCC(=O)N3CCCc4ccccc43)ccc12,"inconclusive: 12.6 µM [activator, single point]",–
O=C(NCCCc1ccccc1)c1ccccc1,"inconclusive: 18.4 µM [activator, partial curve]",–
Oc1ccc2ccccc2c1N=Nc1ccc(F)cc1,"inconclusive: 4.61 µM [inhibitor, full curve, poor fit]",–
Cc1cc(C)cc(NC(=O)Nc2ccc3ccccc3n2)c1,inactive,–
COc1ccc2c(C)cc(Sc3nnnn3-c3ccccc3)nc2c1,active: 25.9 µM,–
Nc1ccn([C@H]2C[C@H](O)[C@@H](CO)O2)c(=O)n1,"inconclusive: 25.9 µM [activator, single point]",–
O=C(CSc1nnc(SCc2ccccc2)s1)N/N=C/c1ccc(Cl)cc1Cl,"inconclusive: 18.4 µM [activator, single point]",–
Cc1ccc(/C=N/NC(=O)C(=O)N/N=C/c2ccc(C)o2)o1,inactive,–
O=c1c2ccccc2nc2n1CCN2Cc1ccc(Cl)cc1,inactive,–
O=C(C1COc2ccccc2O1)N1CCN(c2nc3ccc([N+](=O)[O-])cc3s2)CC1 (stereo not given),"inconclusive: 29.1 µM [inhibitor, single point]",–
Cc1cccc(NC(=O)C2CC(=O)N(c3ccc4c(c3)OCCO4)C2)n1 (stereo not given),"inconclusive: 13 µM [activator, partial curve]",–
COc1ccc(N2CCN(C(=O)C3CCCN(S(=O)(=O)c4cccc5cccnc45)C3)CC2)cc1 (stereo not given),"inconclusive: 20.6 µM [inhibitor, partial curve]",–
O=C(CCNC(=O)c1ccccc1Cl)Nc1nc(-c2ccccc2Cl)cs1,"inconclusive: 20.6 µM [activator, single point]",–

SMILES,Potency,"activity change, negative = inhibition"
CC1=CC(C)(C)NC(=S)N1c1cc(C)cc(C)c1,"inconclusive: 14.6 µM [inhibitor, partial curve]",–
CN(NC1CC(=O)N(c2ccccc2)C1=O)c1ccccc1 (stereo not given),"inconclusive: 18.4 µM [activator, single point]",–
CS(=O)(=O)N1CCN(S(=O)(=O)c2ccccc2[N+](=O)[O-])CC1,"inconclusive: 18.3 µM [activator, partial curve, poor fit]",–
COc1cc(NC(=O)c2ccccc2Cl)c(OC)cc1NC(=O)CN1CCOCC1,inactive,–
COc1cc(NC(=O)CSc2ccc(-c3cccnc3)nn2)cc(OC)c1,"inconclusive: 36.6 µM [inhibitor, partial curve, poor fit]",–
COc1ccc(CNC(=O)CN2CCC(n3nnc4cc(F)ccc43)CC2)cc1,"inconclusive: 23.1 µM [inhibitor, partial curve]",–
O=C(CNC(=O)c1ccccc1F)Nc1ccncc1,"inconclusive: 16.4 µM [activator, partial curve, poor fit]",–
CC(=O)c1ccc(S(=O)(=O)N2CCN(C(=O)CN3C(=O)NC4(CCCC4)C3=O)CC2)cc1,inactive,–
Cn1c(CN2CCCC2)nc2cc(NC(=O)c3cccs3)ccc21,"inconclusive: 16.4 µM [activator, partial curve]",–
O=C(NCc1ccco1)c1ccc(N2CCCCC2)c([N+](=O)[O-])c1,"inconclusive: 0.231 µM [inhibitor, partial curve, poor fit]",–
COc1ccc(CNC(=O)C[C@H]2C[C@H](C(=O)N3CCCCC3)[C@@]3(CCc4ccccc4)c4[nH]c5ccc(Cl)cc5c4CCN3C2=O)cc1OC,inactive,–
O=C(CN1CCCC1)Nc1ccc(NC(=O)Nc2ccccc2Cl)cc1,"inconclusive: 20.6 µM [activator, partial curve]",–
Cc1ccc(C)c(S(=O)(=O)N2CCCCC2CCNC(=O)C(=O)NCc2ccccc2)c1 (stereo not given),"inconclusive: 18.3 µM [inhibitor, single point]",–
Clc1ccc(/C=N/Nc2nnc(Cl)c3ccccc23)cc1,"inconclusive: 2.59 µM [activator, full curve]",–
O=S(=O)(Nc1ccon1)c1ccc(Br)cc1,inactive,–
CC(C)(C)c1ccc(C(=O)NC2CCS(=O)(=O)C2)cc1 (stereo not given),"inconclusive: 20.6 µM [activator, partial curve]",–
COc1ccc(NS(=O)(=O)c2ccc(N3CCCC3=O)cc2)cn1,"inconclusive: 11.6 µM [inhibitor, partial curve]",–
CC(C)CNC(=O)CCCc1ccccc1,"inconclusive: 16.4 µM [activator, single point]",–
O=C(Nc1cnc2sccn2c1=O)c1ccc(Cl)cc1Cl,"inconclusive: 1.64 µM [activator, full curve]",–
COc1cc2ccccc2cc1C(=O)Nc1nccs1,"inconclusive: 7.3 µM [activator, partial curve]",–
O=C(/C=C/c1c[nH]c2ccccc12)c1ccccc1,"inconclusive: 11.6 µM [activator, partial curve]",–
COc1cccc(CN2CC(C(=O)N3CCCCCC3)CCC2=O)c1 (stereo not given),"inconclusive: 29.1 µM [activator, single point]",–

SMILES,Potency,"activity change, negative = inhibition"
CN(Cc1cc(-c2ccccc2)on1)C(=O)c1cc(COc2c(F)cccc2F)on1,"inconclusive: 2.06 µM [activator, full curve, poor fit]",–
O=C(Nn1c(-c2ccc(F)cc2)nc2ccccc2c1=O)C1CCCCC1,"inconclusive: 29.1 µM [activator, single point]",–
C=C(C)CNC(=S)Nc1nc2c(cc1C(=O)OCC)CCCC2,"inconclusive: 16.4 µM [activator, partial curve]",–
CC1CCN(C(=O)c2cc3ccccc3c(=O)o2)CC1,"inconclusive: 20.6 µM [activator, single point]",–
O=C(CC1CCCC1)NCCS(=O)(=O)N1CCN(c2ccccc2F)CC1,inactive,–
CC1(C)Cc2c(c(-c3ccco3)nc3n[nH]c(N)c23)CO1,"inconclusive: 0.116 µM [inhibitor, partial curve, poor fit]",–
CCOC(=O)/C=C(\C)Sc1cc(O)c2ccccc2c1O,"inconclusive: 18.3 µM [inhibitor, single point]",–
Cc1ccccc1-n1c(SC/C(O)=C(\C#N)c2nc3ccccc3[nH]2)nnc1-c1ccncc1,"inconclusive: 25.9 µM [inhibitor, partial curve]",–
C/C(=N\NC(=O)c1csc(C)c1C)c1ccc(Cl)s1,"inconclusive: 18.4 µM [activator, partial curve, poor fit]",–
O=C(COc1ccccc1)N1CCN(c2ccc([N+](=O)[O-])c(N3CCCCC3)c2)CC1,"inconclusive: 20.6 µM [inhibitor, single point]",–
Cc1cccc(NS(=O)(=O)c2ccc(C(=O)NCCCN3CCCC3=O)cc2)c1C,inactive,–
CC1CN(S(=O)(=O)c2cccc(C(=O)OCc3cc(=O)oc4cc(O)ccc34)c2)CC(C)O1 (stereo not given),"inconclusive: 12.6 µM [inhibitor, partial curve, poor fit]",–
CCOC(=O)N1CCC(NC(=O)c2cc(S(=O)(=O)N3CCC4(CC3)OCCO4)ccc2F)CC1,"inconclusive: 2.06 µM [inhibitor, partial curve, poor fit]",–
COc1ccc(-c2nc(CS(=O)(=O)CC(=O)NCCc3ccc(C)cc3)c(C)o2)cc1,–,inconclusive: 60.5% [activator]
O=C(NC1CCCC1)C(c1ccncc1)N(C(=O)c1ccco1)c1ccccc1 (stereo not given),"inconclusive: 29.1 µM [inhibitor, single point]",–
CCCN1CCC(NC(=O)C2CC=CCC2C(=O)O)CC1 (stereo not given),inactive,–
COc1ccccc1/C=C/C=N/Nc1cccc(C(=O)O)c1,"inconclusive: 0.366 µM [activator, full curve]",–
CCn1ncc(-c2csc(N)n2)c1C,"inconclusive: 23.1 µM [activator, partial curve]",–
COc1ccccc1C(=O)NCC(=O)N1CCN(S(=O)(=O)c2ccccc2C(F)(F)F)CC1,"inconclusive: 25.9 µM [inhibitor, single point]",–
NS(=O)(=O)c1ccc(CCNC(=O)C2CCC(Cn3c(=S)[nH]c4ccccc4c3=O)CC2)cc1 (stereo not given),"inconclusive: 29.1 µM [inhibitor, single point]",–
COc1ccc(C(=O)C2C(c3ccc(-c4ccccc4[N+](=O)[O-])o3)NC(=O)NC2(O)C(F)(F)F)cc1 (stereo not given),inactive,–

# As entered above:
# `CCOC(=O)N1CCC(NC(=O)c2cc(S(=O)(=O)N3CCC4(CC3)OCCO4)ccc2F)CC1` – Potency: inconclusive: 2.06 µM [inhibitor, partial curve, poor fit]
# `C=C(C)CNC(=S)Nc1nc2c(cc1C(=O)OCC)CCCC2` – Potency: inconclusive: 16.4 µM [activator, partial curve]
# `COc1ccccc1/C=C/C=N/Nc1cccc(C(=O)O)c1` – Potency: inconclusive: 0.366 µM [activator, full curve]
# `COc1ccc(-c2nc(CS(=O)(=O)CC(=O)NCCc3ccc(C)cc3)c(C)o2)cc1` – activity change, negative = inhibition: inconclusive: 60.5% [activator]
# `CCCN1CCC(NC(=O)C2CC=CCC2C(=O)O)CC1` (stereo not given) – Potency: inactive
